Assay results: patent US12077599 (SEOUL NATIONAL UNIVERSITY R AND DB FOUNDATION NATIONAL …, dated 2024)
These are yes or no findings as the source states them, for the method shown. Binding calls can cover weak binding; strength is not graded here. Sequences can lack the tags named with a protein.

Legend:
[1] = target: human ROS1 (full-length), expressed in HEK293T cells from a lentiviral vector (human); experiment: immunoprecipitation from HEK293T lysate, SDS-PAGE, LC-MS of the excised band
[2] = target: human ROS1 (full-length), expressed in HEK293T cells from a lentiviral vector (human); experiment: immunoprecipitation from lysate of ROS1-transfected HEK293T cells, immunoblot with anti-ROS1 antibody 69D6

binding [1]: binds
binding [2]: binds
B1: 3B20 scFv-rFc fusion protein (Fc fusion, rabbit)
chain: LTQPSSVSANLGGTVKITCSGGSYGYGWYQQKAPGSAPVTVIYDNTNRPSDIPSRFSGSKSGSTGTLTITGVQVEDEAVYYCGSADSSSIATFGAGTTLTVLGQSSRSSGGGGSSGGGGSAVTLDESGGGLQTPGGTLSLVCKASGFSFSDRGMHWMRQAPGKGLEYVGAISGDGYITHYGAAVKGRATISRDNGQSTVRLQLNNLRAEDTATYYCTRGGGGNIDAWGHGTEVIVSSTS
notes: domain: fragment crystallizable region Fc (rFc); scFv fused with rabbit Fc, expressed from modified pCEP4; also called 3B20-rFc; scFv(3B20)-rFc fusion protein; not shown: rabbit antibody fragment crystallizable region Fc (rFc)
